Measurements from PMC6394298.
These are yes or no findings as the source states them, for the method shown. Binding seen in cells or lysates may run through a third protein. For some assays here: Binding calls can cover weak binding; strength is not graded here.

By UniProt entry, the sequences of proteins in these tests, tags left out. Where a name states a change or a piece, a line headed by the entry shows the natural chain unless it says otherwise.
UniProt Q8VI36: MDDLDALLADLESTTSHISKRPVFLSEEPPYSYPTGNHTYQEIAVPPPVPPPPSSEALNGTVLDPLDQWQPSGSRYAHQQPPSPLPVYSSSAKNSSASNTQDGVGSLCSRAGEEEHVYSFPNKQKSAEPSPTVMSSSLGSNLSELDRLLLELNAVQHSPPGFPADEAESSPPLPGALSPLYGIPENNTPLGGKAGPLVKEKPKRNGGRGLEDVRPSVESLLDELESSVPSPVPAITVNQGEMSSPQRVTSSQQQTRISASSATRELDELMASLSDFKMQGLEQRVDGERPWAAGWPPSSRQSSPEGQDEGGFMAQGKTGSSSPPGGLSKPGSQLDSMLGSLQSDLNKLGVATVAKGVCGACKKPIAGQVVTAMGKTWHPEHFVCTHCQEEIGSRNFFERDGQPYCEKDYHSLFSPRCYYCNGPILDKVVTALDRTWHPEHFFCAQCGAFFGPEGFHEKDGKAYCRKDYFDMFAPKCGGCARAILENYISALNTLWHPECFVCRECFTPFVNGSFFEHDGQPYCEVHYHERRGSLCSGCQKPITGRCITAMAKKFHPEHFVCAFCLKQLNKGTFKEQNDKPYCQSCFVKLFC

Legend:
Test in all cases: pull-down; His6-tagged paxillin (WT, S273A, S273D) or His6-tagged DDX42 (WT, D407A) overexpressed in Ba/F3 cells, precipitated from the lysate with Ni-NTA agarose beads; co-precipitated endogenous proteins detected by western blot (anti-DDX42, anti-GIT1, anti-paxillin); mock-transfected and parental cells as controls
[1] = target: His6-tagged DDX42 mutant D407A (mouse) (UniProt Q810A7)
[2] = target: His6-tagged paxillin mutant S273A (mouse) (UniProt Q8VI36)
[3] = target: His6-tagged paxillin mutant S273D (mouse) (UniProt Q8VI36)

With “paxillin (endogenous in Ba/F3 cells) (from UniProt Q8VI36 1-591)” the binding [1] was “no binding”.

B1: ATP-dependent RNA helicase DDX42 (protein, UniProt Q810A7 1-929)
chain: MNWNKGGPGTKRGFGFGGFAISAGKKEEAKLPQQSHSAFGAASSSSGFGKSAPPQLPSFYKIGSKRANFDEENAYFEDEEEDSSNVDLPYIPAENSPTRQQFHSKPADSDSDDDPLEAFMAEVEDQAARDMKRLEEKDKERKNVKGIRDDIEEEDDQEAYFRYMAENPTAGVVQEEEEDNLEYDSDGNPIAPSKKIIDPLPPIDHSEIDYPPFEKNFYNEHEEITNLTPQQLIDLRHKLNLRVSGAAPPRPGSSFAHFGFDEQLMHQIRKSEYTQPTPIQCQGVPVALSGRDMIGIAKTGSGKTAAFIWPMLIHIMDQKELEPGDGPIAVIVCPTRELCQQIHAECKRFGKAYNLRSVAVYGGGSMWEQAKALQEGAEIVVCTPGRLIDHVKKKATNLQRVSYLVFDEADRMFDMGFEYQVRSIASHVRPDRQTLLFSATFRKKIEKLARDILIDPIRVVQGDIGEANEDVTQIVEILHSGPSKWNWLTRRLVEFTSSGSVLLFVTKKANAEELASNLKQEGHNLGLLHGDMDQSERNKVISDFKKKDIPVLVATDVAARGLDIPSIKTVINYDVARDIDTHTHRIGRTGRAGEKGVAYTLLTPKDSNFAGDLVRNLEGANQHVSKELLDLAMQNAWFRKSRFKGGKGKKLNIGGGGLGYRERPGLGSENSDRGNNNNVMSNYEAYKPSTGAMGDRLTAMKAAFQSQYKSHFVAASLSNQKAGTSSAGASGWTSAGSLNSVPTNSAQQGHNSPDNPMTSSTKNIPGFNNSGNISSAPVTYPSIGAQGVNNTASGNNSREGIGGGNGKRERYTENRGGSRHSHGDGGNRHGDGGRHGDGYRYPESGSRHTDGHRHGETRHGGSAGRHGESRGANDGRNGESRKEGFNRENKMDPKVDSSRMDKVDSKTDKTPDGFAVPEPPKRKKSRWDS
For B1, the binding [2] was “binds” and the binding [3] was “binds weakly”.

B2: ARF GTPase-activating protein GIT1 (protein, UniProt Q68FF6 1-770)
chain: MSRKGPRAEVCADCSAPDPGWASISRGVLVCDECCSVHRSLGRHISIVKHLRHSAWPPTLLQMVHTLASNGANSIWEHSLLDPAQVQSGRRKANPQDKVHPIKSEFIRAKYQMLAFVHKLPCRDDDGVTAKDLSKQLHSSVRTGNLETCLRLLSLGAQANFFHPEKGTTPLHVAAKAGQTLQAELLVVYGADPGSPDVNGRTPIDYARQAGHHELAERLVECQYELTDRLAFYLCGRKPDHKNGHYIIPQMADRSRQKCMSQSLDLSELAKAAKKKLQALSNRLFEELAMDVYDEVDRRENDAVWLATQNHSTLVTERSAVPFLPVNPEYSATRNQGRQKLARFNAREFATLIIDILSEAKRRQQGKSLSSPTDNLELSARSQSELDDQHDYDSVASDEDTDQEPLPSAGATRNNRARSMDSSDLSDGAVTLQEYLELKKALATSEAKVQQLMKVNSSLSDELRRLQREIHKLQAENLQLRQPPGPVPPPSLPSERAEHTLMGPGGSTHRRDRQAFSMYEPGSALKPFGGTPGDELATRLQPFHSTELEDDAIYSVHVPAGLYRIRKGVSASSVPFTPSSPLLSCSQEGSRHASKLSRHGSGADSDYENTQSGDPLLGLEGKRFLELSKEDELHPELESLDGDLDPGLPSTEDVILKTEQVTKNIQELLRAAQEFKHDSFVPCSEKIHLAVTEMASLFPKRPALEPVRSSLRLLNASAYRLQSECRKTVPPEPGAPVDFQLLTQQVIQCAYDIAKAAKQLVTITTREKKQ
With B2 the binding [2] was “binds” and the binding [3] was “binds weakly”.
